For 40 compounds, AC50 results are on record in PubChem BioAssay AID445 (National Center for Advancing Translational Sciences (NCATS), 2006).

Some of the results follow. Further columns of the screen follow, without active or inactive calls. The list favours compounds with an active or inconclusive main result. The note in brackets gives the kind of curve behind each potency; many fits are weak.

This assay in a line: IkB Signaling. As to conditions: ABC-DLBCL IkBa-CBG/CBR dual luciferase ratio (green luciferase fused to IkBa over red control in OCI-Ly3 lymphoma cells), 4 h. The gist of the method:
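Luminescence ratio of IκBα-fused green versus native red beetle luciferase in OCI-Ly3 cells, 4 h post-doxycycline with compound; red signal alone, scaled from basal (0%) to zero light (-100%), flagged nonspecific or cytotoxic effects.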

[1] abbreviates: measured here: control luc red channel unless noted.
The mark [2] stands for this setting: measured here: IkB-luc green channel.
Setting [3] is: measured here: control luc red channel.

The AC50 is the midpoint of the concentration-response curve, whichever way the signal moves. As to `O=C(NCCc1ccccc1)c1cnc2sc(N3CCCC3)nn2c1=O`, under setting [1], the concentration at half-maximal activity (AC50) was 1.26 µM [rising, partial curve].
On to `CCCc1nn2c(=O)cc(COC(=O)c3cccc(NC(=O)COc4ccccc4C)c3)nc2s1`, for which, under setting [1], the AC50 was 31.6 µM [falling, partial curve].
On the same count and under the same terms, for `CCOC(=O)c1c(C)[nH]c(CCC(=O)Nc2cc(C)ccc2OC)c1C` the value was 0.0126 µM [falling, full curve, poor fit]; for `c1ccc(-c2ccc(-n3ccnc3)cc2)cc1`, 1 µM [rising, partial curve]; for `CCN(CC)S(=O)(=O)c1ccc2oc(C(=O)NCC3COc4ccccc4O3)c(C)c2c1` (configuration not stated), 7.94 µM [falling, partial curve].
On the same count and under the same terms, the figure for `COc1cc(NC(=O)CC2C(=O)N(c3ccc(Cl)cc3)C(=O)N2Cc2cccs2)cc(OC)c1` (configuration not stated) is 25.1 µM [falling, partial curve]; for `Cc1ccc(C(=O)NCc2ccc(N(C)C)cc2)cc1NC(=O)c1nsc2ccccc12` it is 1 µM [falling, partial curve]; for `CN1C(C(=O)Nc2ccc(F)cc2F)=CC(c2ccco2)=NS1(=O)=O` it is 15.8 µM [falling, partial curve].
Still for that read-out and setting: for `O=C(CSCc1ccccc1Cl)N1CCN(c2ccc(F)cc2)CC1` the value was 25.1 µM [falling, single point].
On to `Cc1cccc(C)c1NC(=O)c1oc2ccc3c(c2c1C)C(=O)CC(C)(C)O3`, for which the half-maximal activity concentration (AC50) under setting [1] is 20 µM [falling, single point].
As for `O=C(Cn1ncc2c1-c1ccccc1OC2)N1CCN(c2ccccc2F)CC1`, under setting [1], the AC50 is 25.1 µM [falling, single point].
Same read-out and setting: for `COc1ccccc1CNC(=O)C1CCCN(S(=O)(=O)c2ccc3c(c2)CCCN3C(C)=O)C1` (configuration not stated) the value was 0.1 µM [falling, full curve, poor fit].
The same measure, in the same setting: the figure for `O=C(CSc1nc2ccccc2o1)Nc1ccccc1N1CCCCCC1` is 25.1 µM [falling, partial curve].
The same measure, in the same setting: the figure for `CCc1nn2c(=O)cc(COC(=O)c3cccc(NC(=O)c4ccccc4Cl)c3)nc2s1` is 15.8 µM [falling, single point]; for `Cc1ccc(CNC(=O)C2CCCN(S(=O)(=O)c3cccc4nsnc34)C2)cc1` (configuration not stated) it is 5.01 µM [falling, partial curve]; for `CCCn1ccc2c(OCC(=O)NCc3ccc(C)cc3)cccc2c1=O` it is 1.26 µM [falling, partial curve, poor fit].
In the case of `Cc1cccc(NC(=O)c2ccc(N(Cc3ccccc3)S(C)(=O)=O)cc2)c1`, the AC50 under setting [1] was 15.8 µM [falling, partial curve].
Still for that read-out and setting: for `CCN(CCCNC(=O)c1cc2c(=O)n(C)c3ccccc3c2s1)Cc1ccccc1` the value was 20 µM [falling, partial curve].
Still for that read-out and setting: for `Cc1ccc2c(c1)C(c1ccc(F)cc1)N(C(=O)COc1ccc(Cl)cc1Cl)CC(=O)N2` (configuration not stated) the value was 10 µM [falling, partial curve]; for `Cc1cc2ncn(CCCCOc3ccccc3)c2cc1C`, 39.8 µM [falling, single point].
Same read-out and setting: the figure for `Cc1ccccc1COC(=O)c1nn(-c2ccccc2)nc1N` is 0.631 µM [rising, full curve].
With `Cc1ccc(OCc2nnc(SCC(=O)Nc3ccc4c(c3)OCCO4)n2Cc2ccco2)cc1`, the AC50 under setting [1] was 25.1 µM [falling, partial curve].
Same read-out and setting: for `Cc1nn(CC(=O)NC2CCC(C)CC2)c(=O)c2c1sc1ccccc12` (configuration not stated) the value was 15.8 µM [falling, single point]; for `CCn1cc2nc(SCC(=O)Nc3cc(OC)cc(OC)c3)n(Cc3ccc(Cl)cc3)c(=O)c2n1`, 3.98 µM [falling, full curve].
The same measure, in the same setting: the figure for `Cc1ccc2oc(-c3ccc(NC(=O)CCC(=O)O)cc3)nc2c1` is 1.58 µM [falling, full curve].
`Nc1ncn([C@H]2O[C@@H](CO)[C@@H](O)[C@@H]2O)c(=O)n1`: the concentration at half-maximal activity (AC50) by setting is: under setting [2], 1.58 µM [rising, partial curve]; under setting [3], 10 µM [falling, partial curve].
For `CCOc1ccc(NC(=O)c2sc3nc4n(c(=O)c3c2C)CCC4)cc1`, the AC50 under setting [1] is 15.8 µM [falling, partial curve, poor fit].
Still for that read-out and setting: for `Cc1nn(Cc2ccc(Cl)c(Cl)c2)c(C)c1NC(=O)c1cc(CC(C)C)on1` the value was 15.8 µM [falling, partial curve].
Same read-out and setting: for `Cc1cccc(CN2C(=O)c3ccccc3Sc3ccc(C(=O)NC4CCCCC4)cc32)c1` the value was 3.16 µM [falling, full curve].
Turning to `CNc1ncnc2ccc(-c3cccc(NS(C)(=O)=O)c3)cc12`, the AC50 runs as follows: under setting [2], 5.01 µM [rising, partial curve]; under setting [3], 3.16 µM [rising, partial curve].
For `CC(C)(C)c1ccc(C(=O)NCC(c2cccnc2)N2CCc3ccccc3C2)cc1` (configuration not stated), under setting [1], the AC50 is 0.02 µM [rising, full curve].
Turning to `O=C(Nc1ccc2nc(SCC(=O)N3CCOCC3)sc2c1)c1cccc(Br)c1`, under setting [1], the half-maximal activity concentration (AC50) was 5.01 µM [falling, partial curve].
The same measure, in the same setting: the figure for `CCN(C(=O)C1CCN(S(=O)(=O)c2cc(Br)cc3c2N(C(C)=O)CC3)CC1)c1cccc(C)c1` is 25.1 µM [falling, partial curve]; for `CCC(=O)C1=C(c2ccc(F)cc2)N(C(=O)CC)n2c(nnc2-c2ccc(OC)cc2)S1` it is 2.51 µM [falling, full curve]; for `COc1ccc(-c2cnc(C)o2)cc1S(=O)(=O)Nc1ccc(NC(C)=O)cc1` it is 5.01 µM [rising, full curve, poor fit].
Same read-out and setting: the figure for `Cn1c(=O)oc2cc(S(=O)(=O)CCC(=O)N3CCN(c4ccccc4F)CC3)ccc21` is 3.16 µM [falling, single point]; for `O=C(CCS(=O)(=O)c1ccc(Br)cc1)Nc1ccc(F)cc1F` it is 39.8 µM [falling, single point].
The same measure, in the same setting: the figure for `Cc1ccc(-c2nc3ncccn3c2Nc2ccc3c(c2)OCCO3)cc1` is 10 µM [falling, partial curve]; for `CCc1ccc(CNc2ccc3c(c2)ncn3C(C)(C)C)cc1` it is 7.94 µM [rising, partial curve, poor fit].
As for `O=C1CC(c2nc(-c3ccccc3)no2)CN1c1ccccc1` (configuration not stated), the AC50 under setting [1] was 10 µM [falling, partial curve].
